Results deposited as PubChem BioAssay AID1259425 (University of Nebraska Medical Center, 2018).
Purpose: 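Compare each knockdown with KSR1 silencing using changes in marker transcripts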 (primary screen). System: HCT116 human colon cancer cells. Knock-down reagent: siRNA pool against human genes, 50 nM siRNA. Detection: 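After 50 nM siRNA pool, branched-DNA assay measures six marker transcripts per well, minus blank, normalised to the geometric mean of two housekeeping transcripts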. Scale: BNIP3L mRNA: higher = more BNIP3L transcript after knockdown; NDRG1 mRNA: higher = more NDRG1 transcript after knockdown; BNIP3 mRNA: higher = more BNIP3 transcript after knockdown; ALDOC mRNA: higher = more ALDOC transcript after knockdown.
Here is an unselected part of about 14,000 reagents tested. Not all columns of the deposit are shown. No sequences are given here. Not given: the time to read-out.

no.	gene symbol	BNIP3L mRNA, set 1	NDRG1 mRNA, set 1	BNIP3 mRNA, set 1	ALDOC mRNA, set 1
1	RNF6	0.0677	0.113	0.231	0.0147
2	YWHAQ	0.073	0.288	0.332	0.00446
3	FLT3	0.191	0.39	0.5	0.0282
4	XPO5	0.152	0.15	0.214	0.0339
5	TAAR9	0.14	0.092	0.171	0.0271
6	PYROXD1	0.0901	0.135	0.306	0.0519
7	TXNRD1	0.0714	0.115	0.276	0.026
8	HAAO	0.113	0.454	0.345	0.0403
9	CRY1	0.199	0.0726	0.294	0.00993
10	FBXL15	0.0923	0.0864	0.301	0.0134
11	NDEL1	0.116	0.128	0.31	0.0288
12	SPARC	0.0851	0.0816	0.325	0.0144
13	CLK4	0.13	0.087	0.372	0.00592
14	EIF2AK3	0.0388	0.0341	0.211	0.00428
15	PPP1R1B	0.0723	0.0997	0.208	0.00573
16	IAPP	0.121	0.112	0.331	0.047
17	IFT22	0.119	0.623	0.357	0.0138
18	MCUB	0.109	0.455	0.244	0.0463
19	OTP	0.166	0.382	0.299	0.0229
20	HMGB2	0.0487	0.298	0.288	0.0166
21	RGCC	0.144	0.222	0.302	0.00906
22	TAF1B	0.0995	0.18	0.272	0.0107
23	TACR3	0.238	0.191	0.382	0.0385
24	PTPN1	0.0288	0.0655	0.214	0.0225
25	SLC35B4	0.116	0.46	0.313	0.0294
26	STK3	0.227	0.107	0.649	0.00792
27	ANP32A	0.0871	0.221	0.374	0.0372
28	C5AR2	0.0798	0.28	0.308	0.027
29	ITGA3	0.135	0.134	0.23	0.035
30	BLVRA	0.0662	0.0716	0.183	0.0127
31	TTLL3	0.188	0.345	0.48	0.12
32	DSC1	0.127	0.0767	0.17	0.022
33	TMEM115	0.184	0.524	0.315	0.019
34	PLXNC1	0.142	0.0411	0.287	0.0188
35	MLLT3	0.111	0.189	0.288	0.019
36	FDX1	0.153	0.11	0.38	0.0362
37	HHAT	0.0738	0.26	0.349	0.0228
38	DCAF7	0.186	0.111	0.288	0.0852
39	KMT2D	0.0666	0.0683	0.347	0.014
40	RAB20	0.129	0.118	0.335	0.0337
41	MUC5B	0.191	0.353	0.401	0.0572
42	PLXNB1	0.0916	0.337	0.292	0.0185
43	SIX6	0.155	0.244	0.222	0.0134
44	POLR3B	0.239	1.2	0.321	0.0243
45	HGFAC	0.126	0.249	0.294	0.043
46	ELF1	0.0731	0.0632	0.292	0.00932
47	SYNGR2	0.0955	0.237	0.251	0.0244
48	DNMT3L	0.0922	0.139	0.3	0.0205
49	ZMYM4	0.151	0.257	0.228	0.0166
50	WNT16	0.0451	0.105	0.306	0.0127

Records above whose target name starts with R or r (3):
gene symbol	BNIP3L mRNA, set 1	NDRG1 mRNA, set 1	BNIP3 mRNA, set 1	ALDOC mRNA, set 1
RNF6	0.0677	0.113	0.231	0.0147
RGCC	0.144	0.222	0.302	0.00906
RAB20	0.129	0.118	0.335	0.0337
